# From patent US20240009436A1, “LOCALIZED […] OF […] […] AGENTS USING FOCUSED ULTRASOUND” (priority 2020, published 2024)
# Assay: Spreading/diffusion of muscimol in rat brain (estimates and literature)
# Conditions: within 20 mins, interstitial space
smiles,measurement,value
NCc1cc(=O)[nH]o1 [muscimol],diffusion distance in tissue,≤ 1 mm
